Data on one sequence can be found in paper PMC3459802.

The exact form of at least one protein or probe is not confirmed. At least one result comes from cells or an extract, where the contact may be indirect.

This series has as its system SMAR1 (Rin 5f lysate) (rat (Rin 5f cells)). As to the kind of experiment: CNBr pull-down, western blot. Particulars: pull-down: 20 mM HEPES pH 7.9, 1 mM EDTA, 30 mM KCl, 100 mM NaCl, 1 mM DTT, 25% glycerol, 0.2% Tween-20, room temp; protein in an extract; label: CNBr-Sepharose coupled. A general note: In western blotting, separated proteins are transferred to a membrane and probed.

For “TAAAGTGTAAAGCCTGGGGTGCCTAATGAGATGAGCTAACTCACATTAATT (double strand) [SMAR1 consensus oligo (double stranded)]”, the binding result is on record as “binds”.
